# Screen size: about 410,000 compounds; about 18,000 (4.4%) were called active. Inconclusive results, whose numbers are uncertain, are shown with a selection of clear calls. Cut-off read from the data, not from the text of the source: active = activity change below about -60%; inconclusive = no clear call, values can overlap the other calls; inactive = above about -39%.
# Test: qHTS Assay for inhibitors of the human cytomegalovirus (HCMV)
# Settings: HFF cells, HCMV-luciferase reporter, 72 h; at 57.5 µM; stronger effect = lower value
# In short: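 Two-dose cell screen: HFF monolayers treated with compounds and infected with luciferase-expressing HCMV at 1 PFU/cell, 72 h at 37C, then lysed for luciferase measurement.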
# % is set by controls: 0 for no effect and ±100 for the full control effect.
row,SMILES,"activity change, negative = inhibition"
1,CC(C)(C)NC(=O)CSc1nsc(SCC(=O)NC(C)(C)C)c1C#N,inconclusive: -56.2%
2,COc1ccccc1N1CCN(CCCn2c(=S)[nH]c3ccccc3c2=O)CC1,inconclusive: -43.4%
3,COc1cc(C2C(C#N)=C(N)Oc3c2c(-c2ccccc2)nn3-c2ccccc2)cc(OC)c1OC (centres undefined),inconclusive: -49.9%
4,CCC(C)NC(=S)Nc1ccc2nc(N3CCOCC3)cc(C)c2c1 (centres undefined),inconclusive: -45.5%
5,O=S(=O)(c1ccccc1)c1nc(-c2ccccc2F)oc1N1CCOCC1,inactive: -9.65%
6,CCOc1ccccc1NC(=O)CCn1ccnc1,inactive: -17.4%
7,Cc1cccc(CC(=O)N2CCOCC2)c1,inactive: -11.1%
8,Cc1ccc(NC(=O)c2ccc([N+](=O)[O-])o2)cc1S(=O)(=O)N1CCOCC1,active: -95.2%
9,COc1ccc(CCNc2nc3cc(OC)c(OC)cc3c3nc(-c4cccnc4)nn23)cc1OC,inactive: -11.3%
10,CCOC(=O)c1c(C)[nH]c(C)c1S(=O)(=O)N(C)CC(=O)Nc1ccc(C)cn1,inconclusive: -49.8%
11,COC(=O)c1[nH]c2c(c1C)C(=O)CC(c1ccccc1)C2 (centres undefined),active: -68.7%
12,CCOC(=O)c1c(CC(C)C)csc1NC(=O)COC(=O)c1cc(OC)c(OC)cc1[N+](=O)[O-],active: -71.5%
13,CC1(C)OC(c2ccccc2)=C/C(=C\C=N\NC(=O)c2ccncc2)O1,active: -64.1%
14,Cc1ccc(-n2nnnc2SC(C)C(=O)Nc2ccccc2-c2ccccc2)cc1 (centres undefined),active: -61.1%
15,C[C@]12CCC3C(CCC4=CC(O)CC[C@@]43/C=N/O)C1(O)CCC2C1=CC(=O)OC1 (some centres undefined),active: -96.4%
16,O=C(CSc1n[nH]c(-c2ccccc2)n1)Nc1ccccc1O,inactive: 23.3%
17,O=C(NC(Cc1ccccc1)C(=O)O)c1ccco1 (centres undefined),inactive: -27.5%
18,CC(C)NC(=O)c1c(O)c2ccccc2[nH]c1=O,inconclusive: -41.2%
19,Nc1c(C(=O)c2ccccc2)sc(Nc2ccc(Cl)c(Cl)c2)c1C(=O)Nc1ccccc1,active: -107%
20,O=C(/C(=C/O)N=Nc1cccc(C(F)(F)F)c1)c1ccccc1,inconclusive: -57.5%
21,COC(=O)c1ccc(CNC(=O)CN(CCC(C)C)S(=O)(=O)c2ccc3c(c2)OCCO3)cc1,inconclusive: -53.4%
22,O=C1N(c2ccccc2C(F)(F)F)O[C@@]1(c1ccccc1)C1CCCC1,inactive: 29%
23,Cc1cccc(C(=O)N2CCc3cc(CNS(=O)(=O)c4cccs4)ccc32)c1,active: -61.8%
24,CCOc1ccc(/C=C/c2nc(C#N)c(NCCCOC)o2)cc1,inconclusive: -40.8%

# Look-ups from above:
# Cc1cccc(C(=O)N2CCc3cc(CNS(=O)(=O)c4cccs4)ccc32)c1 – activity change, negative = inhibition: active: -61.8%
# CCOC(=O)c1c(CC(C)C)csc1NC(=O)COC(=O)c1cc(OC)c(OC)cc1[N+](=O)[O-] – activity change, negative = inhibition: active: -71.5%
